Test results: article PMC7206185
Read-outs that look alike come from different tables or passages of the source. Results are given in words; binding and its absence hold for the method and conditions named. In cells and extracts the contact can be indirect. Some binding calls cover weakened binding; strength is not graded here.

The chains behind the UniProt entries cited, without tags or fusion partners.
UniProt Q9QZL0: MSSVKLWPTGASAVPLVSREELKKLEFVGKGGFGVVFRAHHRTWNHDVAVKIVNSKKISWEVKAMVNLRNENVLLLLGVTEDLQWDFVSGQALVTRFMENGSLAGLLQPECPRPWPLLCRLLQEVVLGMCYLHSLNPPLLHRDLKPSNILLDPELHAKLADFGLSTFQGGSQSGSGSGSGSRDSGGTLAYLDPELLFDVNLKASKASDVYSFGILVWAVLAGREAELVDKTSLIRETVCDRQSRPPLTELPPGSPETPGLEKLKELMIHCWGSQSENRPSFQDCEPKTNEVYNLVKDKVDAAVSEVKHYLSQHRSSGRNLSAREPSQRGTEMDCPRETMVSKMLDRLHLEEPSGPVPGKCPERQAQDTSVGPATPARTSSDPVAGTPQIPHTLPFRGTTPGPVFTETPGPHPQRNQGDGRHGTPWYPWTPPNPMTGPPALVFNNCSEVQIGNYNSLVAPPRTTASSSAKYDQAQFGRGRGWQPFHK
UniProt P45481: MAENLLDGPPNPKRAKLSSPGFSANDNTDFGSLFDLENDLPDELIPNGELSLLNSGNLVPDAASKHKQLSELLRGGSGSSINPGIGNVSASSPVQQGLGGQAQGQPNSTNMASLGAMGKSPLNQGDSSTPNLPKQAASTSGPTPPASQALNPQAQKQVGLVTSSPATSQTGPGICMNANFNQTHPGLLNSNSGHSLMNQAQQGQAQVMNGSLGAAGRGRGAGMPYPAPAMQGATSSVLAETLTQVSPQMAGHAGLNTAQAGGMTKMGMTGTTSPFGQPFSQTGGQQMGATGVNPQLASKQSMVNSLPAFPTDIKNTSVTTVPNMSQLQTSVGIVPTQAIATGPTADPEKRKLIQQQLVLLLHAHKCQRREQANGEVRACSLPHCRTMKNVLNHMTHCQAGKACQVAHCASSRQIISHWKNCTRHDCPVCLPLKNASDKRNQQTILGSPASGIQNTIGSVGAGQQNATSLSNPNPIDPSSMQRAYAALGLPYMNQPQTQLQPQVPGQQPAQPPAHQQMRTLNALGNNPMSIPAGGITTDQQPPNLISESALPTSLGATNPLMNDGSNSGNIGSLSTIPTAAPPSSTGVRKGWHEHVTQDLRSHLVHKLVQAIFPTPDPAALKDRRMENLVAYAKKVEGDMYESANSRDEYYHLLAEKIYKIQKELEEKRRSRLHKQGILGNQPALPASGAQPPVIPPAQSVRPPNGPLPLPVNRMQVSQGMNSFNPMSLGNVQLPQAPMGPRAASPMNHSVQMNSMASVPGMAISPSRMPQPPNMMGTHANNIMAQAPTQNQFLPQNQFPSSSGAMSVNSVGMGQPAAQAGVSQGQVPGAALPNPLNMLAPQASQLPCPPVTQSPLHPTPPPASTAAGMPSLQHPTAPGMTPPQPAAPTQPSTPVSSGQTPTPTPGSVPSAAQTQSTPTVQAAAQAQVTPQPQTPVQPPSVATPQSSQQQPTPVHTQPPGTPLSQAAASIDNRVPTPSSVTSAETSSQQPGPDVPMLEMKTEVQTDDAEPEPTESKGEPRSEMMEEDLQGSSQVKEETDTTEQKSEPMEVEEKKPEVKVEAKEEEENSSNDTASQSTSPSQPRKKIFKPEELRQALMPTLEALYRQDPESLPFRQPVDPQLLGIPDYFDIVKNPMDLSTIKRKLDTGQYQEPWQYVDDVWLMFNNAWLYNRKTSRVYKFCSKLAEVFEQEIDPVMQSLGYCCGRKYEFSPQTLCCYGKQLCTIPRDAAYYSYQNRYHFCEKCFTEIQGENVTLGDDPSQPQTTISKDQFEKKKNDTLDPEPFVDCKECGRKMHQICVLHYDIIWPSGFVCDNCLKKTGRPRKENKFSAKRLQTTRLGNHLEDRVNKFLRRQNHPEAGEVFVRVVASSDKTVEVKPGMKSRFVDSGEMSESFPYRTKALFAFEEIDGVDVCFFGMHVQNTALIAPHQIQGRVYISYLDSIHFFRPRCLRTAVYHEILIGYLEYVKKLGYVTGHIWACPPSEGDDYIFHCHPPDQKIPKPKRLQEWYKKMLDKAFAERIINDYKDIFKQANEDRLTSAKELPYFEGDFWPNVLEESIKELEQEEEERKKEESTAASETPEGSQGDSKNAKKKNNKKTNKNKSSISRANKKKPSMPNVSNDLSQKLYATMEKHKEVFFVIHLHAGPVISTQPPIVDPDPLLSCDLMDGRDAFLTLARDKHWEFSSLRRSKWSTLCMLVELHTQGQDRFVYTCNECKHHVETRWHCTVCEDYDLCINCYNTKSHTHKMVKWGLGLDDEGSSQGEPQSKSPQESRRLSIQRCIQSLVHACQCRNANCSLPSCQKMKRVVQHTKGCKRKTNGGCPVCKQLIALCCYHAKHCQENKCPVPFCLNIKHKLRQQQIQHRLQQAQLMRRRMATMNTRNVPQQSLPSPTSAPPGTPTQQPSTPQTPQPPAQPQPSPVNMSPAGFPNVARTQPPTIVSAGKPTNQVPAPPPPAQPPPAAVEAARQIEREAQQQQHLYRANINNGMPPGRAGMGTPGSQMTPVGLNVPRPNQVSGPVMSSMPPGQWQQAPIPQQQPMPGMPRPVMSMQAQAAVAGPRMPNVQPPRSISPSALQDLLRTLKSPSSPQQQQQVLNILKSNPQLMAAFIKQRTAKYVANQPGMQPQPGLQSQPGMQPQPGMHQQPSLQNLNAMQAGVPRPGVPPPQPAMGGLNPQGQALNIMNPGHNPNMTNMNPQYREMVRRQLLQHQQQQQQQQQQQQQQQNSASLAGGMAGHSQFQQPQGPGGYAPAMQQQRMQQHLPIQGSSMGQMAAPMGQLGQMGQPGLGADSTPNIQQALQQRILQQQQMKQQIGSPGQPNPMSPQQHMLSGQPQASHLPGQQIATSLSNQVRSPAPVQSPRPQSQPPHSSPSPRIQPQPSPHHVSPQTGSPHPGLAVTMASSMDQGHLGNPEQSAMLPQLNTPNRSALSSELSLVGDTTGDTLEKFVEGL
UniProt P56581: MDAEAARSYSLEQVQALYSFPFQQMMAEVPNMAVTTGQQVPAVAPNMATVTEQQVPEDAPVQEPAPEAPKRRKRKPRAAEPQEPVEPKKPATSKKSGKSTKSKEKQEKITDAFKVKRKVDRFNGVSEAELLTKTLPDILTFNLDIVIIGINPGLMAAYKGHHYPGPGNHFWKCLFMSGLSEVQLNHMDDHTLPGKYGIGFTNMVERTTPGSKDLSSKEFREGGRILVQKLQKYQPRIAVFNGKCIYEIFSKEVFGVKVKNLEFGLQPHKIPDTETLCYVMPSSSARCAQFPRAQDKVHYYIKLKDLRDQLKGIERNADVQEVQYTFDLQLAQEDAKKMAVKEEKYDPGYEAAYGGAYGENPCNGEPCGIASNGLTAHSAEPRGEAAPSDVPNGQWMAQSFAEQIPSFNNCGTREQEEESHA

T1: endogenous RARα (mouse (endogenous in TT2 ES cells)) (UniProt P11416)
T1 sequence: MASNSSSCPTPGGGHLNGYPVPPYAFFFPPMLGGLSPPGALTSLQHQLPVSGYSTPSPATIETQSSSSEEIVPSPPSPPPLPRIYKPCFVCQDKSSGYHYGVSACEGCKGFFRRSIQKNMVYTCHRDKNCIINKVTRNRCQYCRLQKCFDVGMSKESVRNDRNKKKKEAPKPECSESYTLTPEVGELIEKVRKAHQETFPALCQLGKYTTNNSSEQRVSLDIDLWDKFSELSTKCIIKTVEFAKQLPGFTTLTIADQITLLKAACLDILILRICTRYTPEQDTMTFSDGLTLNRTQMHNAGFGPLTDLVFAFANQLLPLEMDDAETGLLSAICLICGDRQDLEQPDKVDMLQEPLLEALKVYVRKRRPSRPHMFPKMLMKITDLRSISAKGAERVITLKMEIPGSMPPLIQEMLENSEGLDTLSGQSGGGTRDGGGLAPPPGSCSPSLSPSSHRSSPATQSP

B1: endogenous RARα (protein, UniProt P11416 1-462)
chain: T1 sequence
B2: RXRα (protein, UniProt P28700 1-467)
chain: MDTKHFLPLDFSTQVNSSSLNSPTGRGSMAVPSLHPSLGPGIGSPLGSPGQLHSPISTLSSPINGMGPPFSVISSPMGPHSMSVPTTPTLGFGTGSPQLNSPMNPVSSTEDIKPPLGLNGVLKVPAHPSGNMASFTKHICAICGDRSSGKHYGVYSCEGCKGFFKRTVRKDLTYTCRDNKDCLIDKRQRNRCQYCRYQKCLAMGMKREAVQEERQRGKDRNENEVESTSSANEDMPVEKILEAELAVEPKTETYVEANMGLNPSSPNDPVTNICQAADKQLFTLVEWAKRIPHFSELPLDDQVILLRAGWNELLIASFSHRSIAVKDGILLATGLHVHRNSAHSAGVGAIFDRVLTELVSKMRDMQMDKTELGCLRAIVLFNPDSKGLSNPAEVEALREKVYASLEAYCKHKYPEQPGRFAKLLLRLPALRSIGLKCLEHLFFFKLIGDTPIDTFLMEMLEAPHQAT

Tests used:
[1] = target: T1, endogenous RARα (mouse (endogenous in TT2 ES cells)); assay: co-IP; IP with anti-RARα (control IgG) from 4-day EBs of Tet-On shCasp8 ES cells, with or without 1 μg/ml Dox, with or without 1 μM RA for the last 2 days; endogenous proteins; RIPA buffer
[2] = target: shRipk3-resistant 3xFlag-Wt RIPK3 (mouse) (UniProt Q9QZL0); assay: co-IP; IP with anti-Flag antibody (control IgG) from 4-day EBs of Tet-On shCasp8 ES cells expressing shRipk3 and shRipk3-resistant 3xFlag-Ripk3, with or without 1 μg/ml Dox, with or without 1 μM RA for the last 2 days; western blot of endogenous partners; RIPA buffer
[3] = target: shRipk3-resistant 3xFlag-Wt RIPK3 (mouse) (UniProt Q9QZL0); assay: as above; remark: listed apart in the source

Molecule	binding [2]	binding [3]	further results
endogenous RIPK3 (from UniProt Q9QZL0 1-486)	–	–	binding [1]: binds
CBP (from UniProt P45481 1-2441)	binds	–	–
TDG (from UniProt P56581 1-421)	binds	–	–
B1	–	binds	–
B2	–	binds	–
